Measured values reported in patent US20230348854A1 (SEATTLE CHILDREN S HOSPITAL D B A SEATTLE CHILDREN S …, published 2023).

Sequences of proteins named here, by UniProt entry; tags and fusion partners are left off. Residues count along the entry.
UniProt O76036, 22-304 Q82K limits assumed: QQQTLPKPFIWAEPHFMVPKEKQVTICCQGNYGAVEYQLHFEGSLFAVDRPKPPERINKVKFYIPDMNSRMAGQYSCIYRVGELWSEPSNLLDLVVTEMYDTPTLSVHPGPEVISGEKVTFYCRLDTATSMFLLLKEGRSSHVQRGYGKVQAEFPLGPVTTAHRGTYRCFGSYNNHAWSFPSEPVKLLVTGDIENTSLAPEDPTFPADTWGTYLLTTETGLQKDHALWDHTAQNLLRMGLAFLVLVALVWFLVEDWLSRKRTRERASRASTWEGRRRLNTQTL

Biological target: Human NKp46 (NCR1, CD335), on cells (human, UniProt O76036 22-304)
Test: cell-based or functional assay

B1: anti-NKp46 CAR (αNKp46 CAR), expressed on primary human T cells (scFv)
chain: DIVMTQAAPSIPVTPGESVSISCRSSKSLLYINGNTHLFWFLQRPGQSPQLLIYRMSNLASGVPDRFSGSGSGTAFTLRISRVEAEDVGVYYCMQHLEYPFTFGSGTKLEIKGGGGSGGGGSGGGGSEIQLQQSGAELVKPGASVKLSCTASGFNIKDTYFHWVKQRPEQGLEWIGRIDPANGNTKYDPKFHDKATIIADISSNTAYLQFSSLTSEDTAVYYCAANRYGYWGQGTTLTVSSAKPTTTPAPRPPTPAPTIASQPLSLRPEACRPAAGGAVHTRGLDFACDIYIWAPLAGTCGVLLLSLVITKRGRKKLLYIFKQPFMRPVQTTQEEDGCSCRFPEEEEGGCELRVKFSRSADAPAYQQGQNQLYNELNLGRREEYDVLDKRRGRDPEMGGKPRRKNPQEGLYNELQKDKMAEAYSEIGMKGERRRGKGHDGLYQGLSTATKDTYDALHMQALPPR
- CD137 upregulation in αNKp46 CAR T cells against NK92 cells, fold over αCD19 CAR T cells: 6 fold
- IFNγ expression of NK cells cultured with αNKp46 CAR T cells, fold over NK cells cultured with αCD19 CAR T cells: 3.5 fold
- TNFα expression of NK cells cultured with αNKp46 CAR T cells, fold over NK cells cultured with αCD19 CAR T cells: 1.8 fold
- percentage of CAR T (BFP+) cells expressing CD137, fold increase against CD19 CAR T cells mixed with the same NKp46+ target cells: 5 fold
- percentage of anti-NKp46 CAR T cells with intracellular IFN-γ expression, fold increase relative to CD19 CAR T cells mixed with NKp46+ target cells: 9 fold
- percentage of anti-NKp46 CAR T cells with intracellular IL-2 expression, fold increase relative to CD19 CAR T cells mixed with NKp46+ target cells: 10.5 fold
- percentage of anti-NKp46 CAR T cells with intracellular TNF-α expression, fold increase relative to CD19 CAR T cells mixed with NKp46+ target cells: 11 fold
- percentage of autologous NK cells expressing IFN-γ or TNF-α after contact with anti-NKp46 CAR T cells, fold increase (lower end): 2 to 3 fold
- percentage of autologous NK cells expressing IFN-γ or TNF-α after contact with anti-NKp46 CAR T cells, fold increase (upper end): 2 to 3 fold
- reduction of the percentage of NKp46+ K562 cells after 24 hours, 2:1 ratio: 70%
